{"source": "PubChem BioAssay AID2417", "about": "(National Center for Advancing Translational Sciences (NCATS), 2010)", "note": "The whole screen tested about 140,000 compounds, of which about 4,300 (3.1%) were called active. The inconclusive results got no clear call from the source; some entries with a clear call stand among them for comparison.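 How the source made its calls: active means readout at or below -70, meaning at least 70% loss of cells showing the perinucleolar compartment, a nuclear body marking cancer cells; inconclusive means readout between -30 and a set limit; inactive means the rest.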", "data": [{"assay": "High Content Assay for Compounds that inhibit the Assembly of the Perinucleolar Compartment;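 further: plate controls were DMSO wells for no effect and camptothecin positive control wells for full effect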", "conditions": "PC3M PTB-GFP, PNC prevalence imaging, 16 h; at 10 µM; stronger effect = lower value", "procedure,_shortened": "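Compounds are pinned in duplicate onto adhered PC3M cells stably expressing GFP-tagged PTB and incubated 16 h at 37 C. Cells are then fixed, nuclei stained with Hoechst, and PNC-positive cells counted.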", "values": [{"smiles": "O=C(COc1cccc2ccccc12)NNC(=O)c1cnccn1", "activity change (PNC), negative = inhibition": "inconclusive: -34.1%"}, {"smiles": "O=C(/C=C/c1ccc(Cl)cc1)NCc1ccco1", "activity change (PNC), negative = inhibition": "inactive: -10.5%"}, {"smiles": "Cc1ccc(OCC(=O)N2CCc3ccccc32)cc1", "activity change (PNC), negative = inhibition": "inactive: 11.5%"}, {"smiles": "Nc1nonc1-c1noc(CCCN2C(=O)c3ccccc3C2=O)n1", "activity change (PNC), negative = inhibition": "inactive: 54.6%"}, {"smiles": "CCn1c(SCC(=O)N2CCc3ccccc32)nnc1-c1c[nH]c2ccccc12", "activity change (PNC), negative = inhibition": "inconclusive: -68%"}, {"smiles": "CCCN1Cc2cccc(C(=O)NCc3ccc4c(c3)OCO4)c2C1=O", "activity change (PNC), negative = inhibition": "inconclusive: -60.6%"}, {"smiles": "O=C(NCc1ccccn1)c1ccc(CNS(=O)(=O)c2ccc(F)cc2)cc1", "activity change (PNC), negative = inhibition": "inconclusive: -53.5%"}, {"smiles": "COc1cc(/C=N/NC(N)=O)ccc1OCC(=O)Nc1ccc(C)c(C)c1", "activity change (PNC), negative = inhibition": "inconclusive: -41.4%"}, {"smiles": "COc1ccc(CC(=O)Nc2c3c(nn2-c2cccc(Cl)c2)CS(=O)C3)cc1", "note": "(stereo not given)", "activity change (PNC), negative = inhibition": "active: -119%"}, {"smiles": "CC(=O)Nc1cccc(OCC(O)Cn2cnc3ccccc32)c1", "note": "(stereo not given)", "activity change (PNC), negative = inhibition": "inconclusive: -34.4%"}, {"smiles": "CCOC(=O)/C(=N\\O)C1=NC(C)(C)Cc2ccccc21", "activity change (PNC), negative = inhibition": "inactive: 22.6%"}, {"smiles": "COc1ccc(C)cc1-n1nnnc1SCC(=O)N1CCC(C(=O)Nc2nccs2)CC1", "activity change (PNC), negative = inhibition": "inconclusive: -35.9%"}, {"smiles": "O=C1[C@H]2[C@@H](C(=O)N1c1cc(Cl)cc(Cl)c1)[C@]1(C(=O)Nc3ccccc31)N1CCC[C@@H]21", "activity change (PNC), negative = inhibition": "inactive: -3.15%"}, {"smiles": "COc1ccc(C(=O)N2CCSC2=S)cc1OC", "activity change (PNC), negative = inhibition": "inconclusive: -33.5%"}, {"smiles": "CCc1nnc(NC(=O)CC(CN(C)S(=O)(=O)c2ccccc2)c2ccccc2)s1", "note": "(stereo not given)", "activity change (PNC), negative = inhibition": "inactive: -6.2%"}, {"smiles": "Cc1cnc(NC(=O)COc2cccc3c2OC(C)(C)C3)s1", "activity change (PNC), negative = inhibition": "active: -94.7%"}, {"smiles": "CC1(C)C(=O)C2(CCCCC2)C(=O)OC1c1cccn1-c1ccc([N+](=O)[O-])cc1", "note": "(stereo not given)", "activity change (PNC), negative = inhibition": "active: -87.3%"}, {"smiles": "COc1ccc(CC(=O)NCc2cccs2)cc1OC", "activity change (PNC), negative = inhibition": "inconclusive: -39.1%"}, {"smiles": "O=[N+]([O-])c1ccc(-c2csc(N3CCc4ccccc4C3)n2)cc1", "activity change (PNC), negative = inhibition": "inactive: -7.49%"}, {"smiles": "COc1ccc(OCC(O)CN2CCN(c3ncccn3)CC2)cc1", "note": "(stereo not given)", "activity change (PNC), negative = inhibition": "active: -122%"}, {"smiles": "Cc1ccccc1-c1nnc(NC(=O)c2ccc(N3C(=O)CCC3=O)cc2)s1", "activity change (PNC), negative = inhibition": "inactive: 12.8%"}, {"smiles": "COc1ccc(NCc2ccc([N+](=O)[O-])s2)c(OC)c1", "activity change (PNC), negative = inhibition": "inactive: 43.1%"}, {"smiles": "CCCC(=O)c1ccc(N2CCCCCC2)c(F)c1", "activity change (PNC), negative = inhibition": "inactive: 0.252%"}, {"smiles": "CCCCOCCCn1cnc2c([nH]c3cc(OC)ccc32)c1=O", "activity change (PNC), negative = inhibition": "inconclusive: -68.2%"}, {"smiles": "CCCNC(=O)c1ccccc1NS(=O)(=O)c1ccc2c(c1)OCCO2", "activity change (PNC), negative = inhibition": "inactive: 5.11%"}, {"smiles": "COc1ccc(CSc2nnnn2Cc2ccccc2)cc1OC", "activity change (PNC), negative = inhibition": "inconclusive: -55%"}, {"smiles": "CC(C)(C)OC(=O)N/N=C\\c1ccc(OC(=O)c2cccs2)cc1", "activity change (PNC), negative = inhibition": "inconclusive: -39.7%"}, {"smiles": "CCCOCC1CC2(CC(C)(c3csc(N)n3)OC2=O)C(=O)O1", "note": "(stereo not given)", "activity change (PNC), negative = inhibition": "active: -119%"}, {"smiles": "COC(=O)COc1ccccc1/C=C1/NC(=O)NC1=O", "activity change (PNC), negative = inhibition": "inactive: -21.2%"}, {"smiles": "CC1CCN(CC(=O)Nc2cccc(C(=O)Nc3cccc(C(F)(F)F)c3)c2)CC1", "activity change (PNC), negative = inhibition": "inconclusive: -36.8%"}, {"smiles": "CCCc1ccc(C(=O)NNC(=O)c2ccc(Cl)cc2)cc1", "activity change (PNC), negative = inhibition": "inconclusive: -44%"}, {"smiles": "CCCOn1c(-n2nc(C)cc2C)nc2ccccc2c1=O", "activity change (PNC), negative = inhibition": "inconclusive: -51.6%"}, {"smiles": "Cc1ccc(OCC(O)Cn2c(=N)n(CCN3CCCCC3)c3ccccc32)cc1", "note": "(stereo not given)", "activity change (PNC), negative = inhibition": "inconclusive: -57%"}, {"smiles": "COCCn1c(-c2cccs2)nc2c(c(=O)c3ccccc3n2C)c1=O", "activity change (PNC), negative = inhibition": "inconclusive: -45.2%"}, {"smiles": "COc1ccc(C2C(C#N)=C(SCC(=O)Nc3ccc(C)cc3)NC3=C2C(=O)CC(C)(C)C3)cc1", "note": "(stereo not given)", "activity change (PNC), negative = inhibition": "inactive: 7.17%"}, {"smiles": "CC1(C)CC(=O)C2=C(C1)Oc1ncn(Cc3ccco3)c(=N)c1C2c1ccccc1", "note": "(stereo not given)", "activity change (PNC), negative = inhibition": "inactive: -18.9%"}, {"smiles": "COc1cc(/C=C2/S/C(=N/S(=O)(=O)c3ccccc3)NC2=O)c([N+](=O)[O-])cc1OC", "activity change (PNC), negative = inhibition": "inconclusive: -48.9%"}, {"smiles": "O=C(Nc1ccn(Cc2ccccc2)n1)c1cccc(Cn2cc([N+](=O)[O-])cn2)c1", "activity change (PNC), negative = inhibition": "inconclusive: -34.1%"}, {"smiles": "COc1ccccc1/C=C/C=N/NC(=O)CN1CCN(S(=O)(=O)c2ccc(C)cc2)CC1", "activity change (PNC), negative = inhibition": "inconclusive: -37.1%"}, {"smiles": "CCCn1nnnc1NC(=O)CSc1ccc(Cl)cc1", "activity change (PNC), negative = inhibition": "inactive: -27.2%"}, {"smiles": "CC(=O)Nc1cc(C(F)(F)F)ccc1Oc1cccc(Br)c1", "activity change (PNC), negative = inhibition": "inconclusive: -33.3%"}, {"smiles": "COc1cc(CNCCc2ccccc2F)ccc1OCc1ccc(Cl)nc1", "activity change (PNC), negative = inhibition": "inconclusive: -45.9%"}, {"smiles": "O=c1c(C(c2ccccc2)c2c(O)nc3n(c2=O)CCCS3)c(O)nc2n1CCCS2", "activity change (PNC), negative = inhibition": "inconclusive: -63.5%"}, {"smiles": "CCN1C(=O)/C(=C/c2ccc(C)o2)N(C)C1=S", "activity change (PNC), negative = inhibition": "inconclusive: -41.4%"}, {"smiles": "NC1=NC2(CCCCC2)N=C(Nc2ccc(Br)cc2)N1", "activity change (PNC), negative = inhibition": "inactive: -15.8%"}]}]}
